Some of the results follow. Further columns of the screen follow, without active or inactive calls. Compounds called inactive in the main read-out are mostly missing here. Words in brackets tell the shape of the fitted curve; partial curves, single points and poor fits give uncertain potencies.

The results in this text go back to PubChem BioAssay AID493014 (National Center for Advancing Translational Sciences (NCATS), 2011).

A short description of the experiment: qHTS Assay to Find Inhibitors of Chronic Active B-Cell Receptor Signaling. To be noted: ABC-DLBCL IkBa-CBG/CBR reporter, luminescence ratio (green luciferase fused to IkBa over red control in TMD8 lymphoma cells), 4 h. In a few lines: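 Concentration-response series (up to 46 uM) were applied to TMD8 dual-reporter cells for 4 h at 37C with doxycycline. Green/red ratio, after filter-overlap correction, defined %Activity; red signal alone was normalised to basal cells and zero luminescence.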
A general note: Quantitative high-throughput screening tests each substance at several concentrations.

[1] abbreviates: measured here: CBR red luminescence, cell number.
Where [2] appears, read: measured here: IkBa-CBG green luminescence.

Take `CCc1ccccc1NC(=O)Nc1ccc(F)cc1`: the AC50 under setting [1] was 17.8 µM [falling, single point].

With `O=C(CCC(=O)c1ccc[nH]1)c1ccc(Cl)cc1`, under setting [1], the AC50 was 10 µM [falling, partial curve].

With `COc1ccc(/C=N/c2oc(C)c(C)c2C#N)c(OC)c1`, the concentration at half-maximal activity (AC50) under setting [1] is 17.8 µM [rising, partial curve, poor fit].

As for `COc1ccc(CC(=O)Nc2cccc(-c3nnc(-c4cccc(C)c4)o3)c2)cc1OC`, the AC50 under setting [1] was 0.517 µM [falling, full curve, poor fit].

As for `CCC(C)(NC(=O)Cc1c[nH]c2ccccc12)C(=O)NC1CCCCC1` (stereo unspecified), the AC50 under setting [1] was 20.6 µM [rising, partial curve, poor fit].

On to `Cc1nn(C)c(C)c1NC(=O)CCSc1nc(-c2ccco2)cc(C(F)(F)F)n1`, for which, under setting [1], the AC50 is 0.517 µM [falling, full curve, poor fit].

Regarding `O=C(Nc1cccc(F)c1)c1c(O)c2ccccc2[nH]c1=O`, under setting [1], the AC50 was 0.112 µM [rising, full curve, poor fit].

Turning to `COc1cc(OC)cc(C(=O)N[C@H](C(=O)NCCc2c[nH]c3ccccc23)C(C)C)c1`, under setting [1], the AC50 was 5.62 µM [rising, single point].

On to `O=C(NNc1nc2ccccc2s1)c1ccc(F)cc1`, for which the AC50 under setting [1] was 14.6 µM [falling, partial curve].

`O=C(Nc1ccccc1)N1CCN(c2ccc(F)cc2)CC1`: the AC50 under setting [1] was 18.4 µM [falling, partial curve].

As for `O=C1CCCc2c1[nH]c1ccc(CN3CCCCC3)cc21`, the AC50 under setting [2] was 12.6 µM [falling, partial curve, poor fit].

On to `CCSc1nnc(NC(=O)c2ccc(Br)s2)s1`, for which the AC50 under setting [1] is 0.731 µM [falling, full curve].

`CC(C)OC(=O)c1ccc(N2CCN(c3ccccc3F)CC2)nc1`: the AC50 under setting [1] was 3.98 µM [rising, partial curve, poor fit].

Turning to `O=C1c2cccc(OCc3ccc(F)cc3)c2CCN1Cc1ccccc1`, the AC50 under setting [1] was 5.8 µM [falling, partial curve].

On to `COc1cc(/C=C/C(=O)OCC(=O)N2CCCc3ccccc32)ccc1O`, for which the AC50 under setting [1] was 25.9 µM [rising, single point] and the AC50 under setting [2] was 23.1 µM [falling, single point].

For `CCOc1ccc(NC(=O)c2ccccc2NS(=O)(=O)c2ccc(F)cc2)c([N+](=O)[O-])c1`, the AC50 under setting [1] is 20.6 µM [falling, partial curve, poor fit].

For `O=C(Nc1ccccc1)Nc1ccc2ccccc2c1`, the AC50 under setting [1] is 7.08 µM [falling, partial curve].

In the case of `O=C(N/N=C/c1cc2c(cc1Br)OCO2)c1cccnc1`, the AC50 under setting [1] was 11.2 µM [falling, partial curve].

As to `N#C/C(=C(/O)COc1ccc(Cl)cc1)c1nc2ccccc2s1`, under setting [1], the concentration at half-maximal activity (AC50) is 7.08 µM [falling, partial curve, poor fit].

Regarding `CN1/C(=C\C(=O)COC(=O)c2ccc(O)cc2)C(C)(C)c2ccccc21`, the AC50 under setting [1] is 35.5 µM [falling, partial curve, poor fit].

Turning to `CC(=O)c1cccc(NC(=O)C2CCCN2S(=O)(=O)c2cccc3nsnc23)c1` (stereo unspecified), the AC50 under setting [1] is 8.91 µM [rising, partial curve].

Consider `CCNC(=O)Cn1cnc2c1c(=O)n(C)c(=O)n2C`, for which the AC50 under setting [1] is 29.1 µM [rising, single point].

For `CCc1nnc(NS(=O)(=O)c2ccc(NC(=S)NC(=O)c3ccccc3)cc2)s1`, the AC50 is, setting by setting: under setting [1], 23.1 µM [falling, partial curve, poor fit]; under setting [2], 23.1 µM [rising, partial curve, poor fit].

Turning to `CC(C)(C)c1ccc(C(=O)Nc2ccc(C=C(C#N)C#N)cc2)cc1`, the AC50 under setting [1] is 10.3 µM [rising, partial curve, poor fit].

For the compound `Cc1ccc(C)c(S(=O)(=O)N2CCN(C(=O)CCC(=O)NCc3ccc(Cl)cc3)CC2)c1`, the concentration at half-maximal activity (AC50) under setting [1] was 0.231 µM [rising, full curve, poor fit].

For `O=C(O)c1ccccc1NS(=O)(=O)c1ccc(NN=Cc2ccccc2F)c([N+](=O)[O-])c1`, under setting [1], the AC50 is 25.9 µM [rising, single point].

Turning to `O=C(CCSc1ccccc1)NCCSCc1ccco1`, under setting [1], the AC50 was 23.1 µM [falling, partial curve, poor fit].

Take `COc1ccccc1OCc1cc(C(=O)N(C)CCC2CCCCO2)no1` (stereo unspecified): the AC50 under setting [1] was 10 µM [rising, partial curve].

As to `CC(C)c1ccc(NC2CCCN(C(=O)CCN3CCCO3)C2)cc1` (stereo unspecified), the AC50 under setting [1] is 3.55 µM [rising, full curve, poor fit].

As to `Cc1ccc(CN2CCN(CCCn3cccn3)CC2CCO)cc1` (stereo unspecified), the AC50 under setting [1] is 25.1 µM [rising, single point].

Regarding `COc1ccccc1NC(=S)NCCc1c[nH]c2ccccc12`, under setting [1], the AC50 is 35.5 µM [falling, single point].

Take `COc1ccc(-c2n[nH]c(C(F)(F)F)c2-c2cc3ccccc3o2)c(O)c1`: under setting [1], the AC50 is 22.4 µM [falling, single point].

Regarding `COc1ccc(C(=O)NNC(=S)NC(=O)/C=C/c2cccs2)cc1`, the AC50 under setting [1] is 35.5 µM [falling, single point].

With `CCOc1ccc(C2C([N+](=O)[O-])=C(C)N(C)C(=O)N2C)cc1OC` (stereo unspecified), the AC50 under setting [1] is 35.5 µM [falling, single point].

For `CCOC(=O)c1nn(-c2ccc(C)cc2)cc1O`, under setting [1], the AC50 is 32.6 µM [falling, single point].

With `Cc1ccc(S(=O)(=O)Nc2ccc(C(OC(=O)c3ccccc3[N+](=O)[O-])(C(F)(F)F)C(F)(F)F)cc2)cc1`, the AC50 under setting [1] was 16.4 µM [falling, partial curve, poor fit].

Regarding `CCc1sc(C(=O)NC2CCN(C)CC2)cc1Br`, under setting [1], the AC50 is 6.51 µM [falling, single point].

Consider `C=CCc1ccc(OCc2ccc(C(=O)O)o2)c(OC)c1`, for which the AC50 under setting [1] was 2 µM [falling, full curve].

As to `CCc1c(C)sc(NC(=O)c2cc(C3CC3)on2)c1C#N`, the AC50 under setting [1] was 8.91 µM [rising, partial curve, poor fit].

Consider `COc1cccc(C(=O)NC(=S)Nn2cnnc2)c1OC`, for which, under setting [1], the half-maximal activity concentration (AC50) is 1.58 µM [rising, partial curve, poor fit].

For `COC(=O)C1CC(=O)N(c2ccc(OCc3ccccc3Cl)cc2)C1` (stereo unspecified), under setting [1], the AC50 is 10 µM [falling, single point].

Take `CN1CCN(c2ccccc2NC(=O)COc2ccc(Br)cc2)CC1`: the AC50 under setting [1] was 20.6 µM [falling, single point].

In the case of `COc1ccc(C(CCN)c2ccc3c(c2)OCO3)cc1` (stereo unspecified), under setting [1], the AC50 was 3.55 µM [falling, partial curve, poor fit].

With `CCOc1ccc(OCCSc2nnnn2C2CCCCC2)cc1`, under setting [1], the AC50 was 0.116 µM [falling, full curve, poor fit].

As for `Cc1cc(CNC(=O)CC2C(=O)NCCN2Cc2ccccc2C(F)(F)F)on1` (stereo unspecified), the AC50 under setting [1] was 35.5 µM [rising, single point].

Turning to `COc1cc(C(=O)NNC(=S)NC(=O)/C=C/c2ccccc2)cc(OC)c1OC`, the AC50 under setting [1] is 3.16 µM [rising, full curve].

Regarding `COc1cccc(C(=O)Nc2cccc3ccccc23)c1OC`, the AC50 under setting [1] is 22.4 µM [rising, partial curve, poor fit].

As to `CC(=O)Nc1cccc(C(=O)N2CCN(Cc3ccccc3)CC2)c1`, the AC50 under setting [1] is 6.51 µM [rising, single point].

As to `CCOC(=O)c1c(NC(=O)COC(=O)c2cc(OC)c(OC)cc2[N+](=O)[O-])sc(C)c1C`, the AC50 under setting [1] is 3.66 µM [rising, single point].

Consider `CCOC(=O)C1CCN(Cc2nnc(-c3ccccc3C)o2)CC1`, for which, under setting [1], the AC50 was 35.5 µM [rising, single point].

With `Cc1ccc(/C=N/NC(=O)Cc2cccn2C)s1`, the AC50 under setting [1] was 6.51 µM [rising, single point].

For `Cc1ccc(Cl)cc1Nc1nc(-c2sc(NC(=O)c3ccco3)nc2C)cs1`, the AC50 under setting [1] is 5.62 µM [falling, full curve].

Take `CCc1ccc(/C=C2\SC(=S)N(CCC(=O)Nc3cc(C)on3)C2=O)cc1`: the AC50 under setting [1] is 1.41 µM [falling, full curve, poor fit].

For the compound `O=C(NC(=S)Nc1ccc2oc(=O)ccc2c1)c1ccccc1F`, the AC50 under setting [1] was 35.5 µM [falling, single point].

Take `O=C(Nc1ccccc1F)Oc1cccc(OC(=O)Nc2ccccc2F)c1`: the AC50 under setting [1] was 14.1 µM [falling, partial curve].

For the compound `CCNC(=O)C1CC(=O)OC12CCCCC2` (stereo unspecified), the AC50 under setting [1] is 35.5 µM [falling, partial curve, poor fit].

Regarding `Oc1cccc(-c2nc3ccc4ccccc4c3c3c2CCC3)c1`, the AC50 under setting [1] was 29.1 µM [falling, single point].

`Cc1sc(NC(=O)c2ccco2)c(C(Nc2ccccn2)c2ccccc2)c1C` (stereo unspecified): the AC50 under setting [1] was 16.4 µM [falling, single point].

In the case of `COc1cccc(C2CC(c3cccs3)=NN2S(C)(=O)=O)c1OC` (stereo unspecified), the AC50 under setting [1] was 17.8 µM [rising, partial curve].

Take `Cc1nnc(Sc2c(N)n(C)c(=O)n(C)c2=O)s1`: the AC50 under setting [1] was 1.84 µM [rising, partial curve, poor fit].

`COc1ccc(NC(=O)CN(C)C(=O)c2ccc(NS(=O)(=O)c3ccc(C)c([N+](=O)[O-])c3)cc2)cc1`: under setting [1], the AC50 is 20.6 µM [falling, single point].

Take `Cc1nc2ccccn2c1C(=O)NCc1ccc2c(c1)OCO2`: the AC50 under setting [1] was 12.6 µM [falling, partial curve, poor fit].

In the case of `O=C(Nc1nnc(C2CC2)s1)C1Cc2ccccc2CN1S(=O)(=O)c1ccccc1F` (stereo unspecified), the AC50 under setting [1] is 35.5 µM [falling, single point].

With `CCOC(=O)/C=C/C(=O)Nc1ccc(S(=O)(=O)N2CCCCCC2)cc1`, under setting [1], the AC50 is 12.6 µM [falling, partial curve, poor fit].

One may read the AC50 as the midpoint of the concentration-response curve, whichever way the signal moves.
